Patent US20190309066A1, “COMBINATION THERAPY FOR THE TREATMENT OF SOLID AND HEMATOLOGICAL CANCERS” (Arch Oncology, Inc., priority 2017, published 2019)
Results are given in words; binding and its absence hold for the method and conditions named. Some results given as binding are weak or reduced against the parent protein; the word gives no strength.

By UniProt entry, the sequences of proteins in these tests, tags left out. Where a name states a change or a piece, a line headed by the entry shows the natural chain unless it says otherwise.
UniProt Q08722: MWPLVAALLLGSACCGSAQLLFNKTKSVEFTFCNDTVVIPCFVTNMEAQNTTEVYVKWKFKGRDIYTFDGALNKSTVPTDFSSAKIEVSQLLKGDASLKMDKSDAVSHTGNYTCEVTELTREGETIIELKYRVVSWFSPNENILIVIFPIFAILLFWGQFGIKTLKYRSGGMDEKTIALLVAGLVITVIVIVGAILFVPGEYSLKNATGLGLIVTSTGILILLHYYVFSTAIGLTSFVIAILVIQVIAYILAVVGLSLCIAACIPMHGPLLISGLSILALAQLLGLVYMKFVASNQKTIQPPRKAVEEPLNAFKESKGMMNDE

Columns and labels:
[1] = target: human CD47 expressed on cells (human) (UniProt Q08722); test: flow cytometry on freshly isolated human RBCs, FITC-labelled donkey anti-human antibody, MFI
[2] = target: human CD47 expressed on cells (human) (UniProt Q08722); test: cell ELISA, OV10 hCD47 cells
[3] = target: human CD47 expressed on cells (human) (UniProt Q08722); test: flow cytometry, human RBCs
[4] = target: human CD47 expressed on cells (human) (UniProt Q08722); test: cell-based ELISA on OV10 cells expressing human CD47 (OV10 hCD47), HRP-labelled secondary antibody, OD 450

Measured: binding

B1: VLX8hum_06 IgG2 (antibody, V domains shown)
VH: QVQLVQSGAEVKKPGASVKVSCKASGYSFTNYYIHWVRQAPGQGLEWMGYIDPLNGDTTYNQKFKGRVTMTRDTSTSTVYMELSSLRSEDTAVYYCARGGKRAMDYWGQGTLVTVSS
VL: DIQMTQSPSSLSASVGDRVTITCRASQSISNYLNWYQQKPGKAPKLLIYYTSRLYSGVPSRFSGSGSGTDFTLTISSLQPEDFATYYCQQGNTLPWTFGQGTKVEIKR
binds: all assays above

B2: VLX8hum_08 IgG2 (antibody, V domains shown)
VH: EVQLVQSGAEVKKPGESLKISCKGSGYSFTNYYIHWVRQMPGKGLEWMGYIDPLNGDTTYNQKFKGQVTISADKSISTAYLQWSSLKASDTAMYYCARGGKRAMDYWGQGTLVTVSS
VL: DIQMTQSPSSLSASVGDRVTITCRASQSISNYLNWYQQKPGKAPKLLIYYTSRLYSGVPSRFSGSGSGTDFTLTISSLQPEDFATYYCQQGNTLPWTFGQGTKVEIKR
binds: all assays above

B3: VLX8hum_09 IgG2 (antibody, V domains shown)
VH: QVQLVQSGAEVKKPGSSVKVSCKASGYSFTNYYIHWVRQAPGQGLEWMGYIDPLNGDTTYAQKFQGRVTITADESTSTAYMELSSLRSEDTAVYYCARGGKRAMDYWGQGTLVTVSS
VL: DIQMTQSPSSLSASVGDRVTITCRASQSISNYLNWYQQKPGKAPKLLIYYTSRLYSGVPSRFSGSGSGTDFTLTISSLQPEDFATYYCQQGNTLPWTFGQGTKVEIKR
binds: all assays above

B4: VLX8hum_07 IgG2 (antibody, V domains shown)
VH: QVQLVQSGAEVKKPGSSVKVSCKASGYSFTNYYIHWVRQAPGQGLEWMGYIDPLNGDTTYNQKFKGRVTITADESTSTAYMELSSLRSEDTAVYYCARGGKRAMDYWGQGTLVTVSS
VL: DIQMTQSPSSLSASVGDRVTITCRASQSISNYLNWYQQKPGKAPKLLIYYTSRLYSGVPSRFSGSGSGTDFTLTISSLQPEDFATYYCQQGNTLPWTFGQGTKVEIKR
binds: all assays above
